# Results from publication PMC5996148.
# This is one part of the list. For some of these results: The source does not settle which construct or isoform was used.
# How the values were obtained:
# Experiment in all cases: protein microarray (ProtoArray v5.0), streptavidin-Alexa Fluor 647
# Details in all cases: 3'-biotin; 20 mM Tris (pH 7.5), 5 mM MgCl2, 100 mM KCl, 0.1% Tween-20, A/T-rich and random oligonucleotide blockers; temperature not stated; high values mean tight binding
# [1] = tested on: IFIH1 (human)
# [2] = tested on: IFIT3 (human)
# [3] = biological target: T1, IFIT5 (UniProt Q13325)
# T1 sequence: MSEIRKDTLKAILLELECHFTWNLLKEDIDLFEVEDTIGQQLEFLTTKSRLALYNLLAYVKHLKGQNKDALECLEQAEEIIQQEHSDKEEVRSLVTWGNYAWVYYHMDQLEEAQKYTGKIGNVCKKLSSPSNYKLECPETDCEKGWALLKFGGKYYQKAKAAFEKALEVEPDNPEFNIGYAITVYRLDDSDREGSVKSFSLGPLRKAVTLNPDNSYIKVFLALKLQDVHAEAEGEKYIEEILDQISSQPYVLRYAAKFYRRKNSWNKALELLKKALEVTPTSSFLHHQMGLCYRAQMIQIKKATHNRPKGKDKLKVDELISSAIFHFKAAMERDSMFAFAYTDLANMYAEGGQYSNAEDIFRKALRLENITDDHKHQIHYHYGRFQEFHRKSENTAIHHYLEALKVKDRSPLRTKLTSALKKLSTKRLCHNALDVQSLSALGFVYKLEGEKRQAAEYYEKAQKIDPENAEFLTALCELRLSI
# [4] = tested on: IFNA2 (human)
# [5] = tested on: IFNA6 (human)
# [6] = tested on: IFNA8 (human)
# [7] = tested on: IFNK (human)
# [8] = tested on: IFNW1 (human)
# [9] = tested on: IGHA1 (human)
# [10] = tested on: IGHM (human)
sequence,measurement,setting,value
GGTGACAGGGGTATGGGGAGGGG [G4-2 biotinylated (Ct1)],binding signal,[1],-0.399 z-score
same,binding signal,[2],-0.401 z-score
same,binding signal,[3],3.7 z-score
same,binding signal,[4],-0.375 z-score
same,binding signal,[5],-0.369 z-score
same,binding signal,[6],-0.388 z-score
same,binding signal,[7],-0.387 z-score
same,binding signal,[8],-0.362 z-score
same,binding signal,[9],-0.385 z-score
same,binding signal,[10],-0.367 z-score
